Patent US20240165104A1, “TREATMENT OF DEPRESSION” (priority 2021, published 2024)
Counter-ions that a name gives are not always drawn. At least one structure is not confirmed: it was looked up by name or label, or the drawing left a doubt. Some entries share one result that the patent states for a list of compounds.

Assay: Pharmacokinetics after administration of the subject combination
Conditions: for time of Cmax post-dose (metabolite): after administration of the subject combination

SMILES | time to steady state plasma concentrations (given as the subject combination) [days] | time of Cmax post-dose (metabolite)
COc1ccc2c(c1)[C@]13CCCC[C@@H]1[C@H](C2)N(C)CC3 [dextromethorphan, morphinan, 3-methoxy-17-methyl-, (9α, 13α, 14α), hydrobromide monohydrate] | ≤ 8 | –
CC(NC(C)(C)C)C(O)c1cccc(Cl)c1 (stereo not shown) [erythrohydroxybupropion] | – | approximately 4 hours
C[C@H]1NC(C)(C)CO[C@]1(O)c1cccc(Cl)c1 [hydroxybupropion] | – | about 3 hours
C[C@H](NC(C)(C)C)[C@@H](O)c1cccc(Cl)c1 [threohydroxybupropion] | – | approximately 4 hours
